According to PMC5005407:
No constants are given. Whether binding was seen depends on the method and setting. Binding seen in cells or lysates may run through a third protein. Some binding calls cover weakened binding; strength is not graded here.

The chains behind the UniProt entries cited, without tags or fusion partners.
UniProt Q8BGB7: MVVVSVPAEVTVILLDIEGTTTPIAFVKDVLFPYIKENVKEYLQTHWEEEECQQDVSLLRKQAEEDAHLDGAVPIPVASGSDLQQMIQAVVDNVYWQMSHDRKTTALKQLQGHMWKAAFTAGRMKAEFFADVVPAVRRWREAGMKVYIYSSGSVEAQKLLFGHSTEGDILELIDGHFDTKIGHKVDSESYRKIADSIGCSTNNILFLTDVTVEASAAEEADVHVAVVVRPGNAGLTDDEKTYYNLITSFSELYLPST

Molecular target: Enolase-phosphatase 1 (mouse (endogenous in bEND3)) (UniProt Q8BGB7)
Experiment: co-IP; bEND3 whole cell lysates (RIPA buffer, 0.5 mg protein) of control cultures or cells after 6 h OGD; pre-cleared with normal IgG; anti-ENOPH1 overnight at 4°C, protein A/G Plus-Agarose; immunoblot with anti-ADI1

B1: aci-reductone dioxygenase 1 (protein, UniProt Q99JT9 1-179)
chain: MVQAWYMDESTADPRKPHRAQPDRPVSLEQLRTLGVLYWKLDADKYENDPELEKIRKMRNYSWMDIITICKDTLPNYEEKIKMFFEEHLHLDEEIRYILEGSGYFDVRDKEDKWIRISMEKGDMITLPAGIYHRFTLDEKNYVKAMRLFVGEPVWTPYNRPADHFDARVQYMSFLEGTA
binding: binds
